Experiment [1] concerns the target T1, VEGI‐251 (vascular endothelial growth inhibitor isoform 251), Flag-tagged, overexpressed in TAMs (human) (UniProt O95150).
T1 sequence: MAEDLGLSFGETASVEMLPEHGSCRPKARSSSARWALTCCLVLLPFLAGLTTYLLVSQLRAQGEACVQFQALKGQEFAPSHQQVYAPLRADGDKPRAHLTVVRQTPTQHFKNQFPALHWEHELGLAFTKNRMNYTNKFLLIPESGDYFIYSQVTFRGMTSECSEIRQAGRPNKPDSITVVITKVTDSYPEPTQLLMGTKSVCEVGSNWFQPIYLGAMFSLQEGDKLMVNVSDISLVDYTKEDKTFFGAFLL
In words: co-IP; lysates of TAMs transiently overexpressing VEGI‐251 or vector control; precipitated with anti‐Flag antibody or IgG, blotted with anti‐ASK1 or anti‐TRAF2.

Chains of the proteins cited; added tags and fusions are not shown.
UniProt O35099: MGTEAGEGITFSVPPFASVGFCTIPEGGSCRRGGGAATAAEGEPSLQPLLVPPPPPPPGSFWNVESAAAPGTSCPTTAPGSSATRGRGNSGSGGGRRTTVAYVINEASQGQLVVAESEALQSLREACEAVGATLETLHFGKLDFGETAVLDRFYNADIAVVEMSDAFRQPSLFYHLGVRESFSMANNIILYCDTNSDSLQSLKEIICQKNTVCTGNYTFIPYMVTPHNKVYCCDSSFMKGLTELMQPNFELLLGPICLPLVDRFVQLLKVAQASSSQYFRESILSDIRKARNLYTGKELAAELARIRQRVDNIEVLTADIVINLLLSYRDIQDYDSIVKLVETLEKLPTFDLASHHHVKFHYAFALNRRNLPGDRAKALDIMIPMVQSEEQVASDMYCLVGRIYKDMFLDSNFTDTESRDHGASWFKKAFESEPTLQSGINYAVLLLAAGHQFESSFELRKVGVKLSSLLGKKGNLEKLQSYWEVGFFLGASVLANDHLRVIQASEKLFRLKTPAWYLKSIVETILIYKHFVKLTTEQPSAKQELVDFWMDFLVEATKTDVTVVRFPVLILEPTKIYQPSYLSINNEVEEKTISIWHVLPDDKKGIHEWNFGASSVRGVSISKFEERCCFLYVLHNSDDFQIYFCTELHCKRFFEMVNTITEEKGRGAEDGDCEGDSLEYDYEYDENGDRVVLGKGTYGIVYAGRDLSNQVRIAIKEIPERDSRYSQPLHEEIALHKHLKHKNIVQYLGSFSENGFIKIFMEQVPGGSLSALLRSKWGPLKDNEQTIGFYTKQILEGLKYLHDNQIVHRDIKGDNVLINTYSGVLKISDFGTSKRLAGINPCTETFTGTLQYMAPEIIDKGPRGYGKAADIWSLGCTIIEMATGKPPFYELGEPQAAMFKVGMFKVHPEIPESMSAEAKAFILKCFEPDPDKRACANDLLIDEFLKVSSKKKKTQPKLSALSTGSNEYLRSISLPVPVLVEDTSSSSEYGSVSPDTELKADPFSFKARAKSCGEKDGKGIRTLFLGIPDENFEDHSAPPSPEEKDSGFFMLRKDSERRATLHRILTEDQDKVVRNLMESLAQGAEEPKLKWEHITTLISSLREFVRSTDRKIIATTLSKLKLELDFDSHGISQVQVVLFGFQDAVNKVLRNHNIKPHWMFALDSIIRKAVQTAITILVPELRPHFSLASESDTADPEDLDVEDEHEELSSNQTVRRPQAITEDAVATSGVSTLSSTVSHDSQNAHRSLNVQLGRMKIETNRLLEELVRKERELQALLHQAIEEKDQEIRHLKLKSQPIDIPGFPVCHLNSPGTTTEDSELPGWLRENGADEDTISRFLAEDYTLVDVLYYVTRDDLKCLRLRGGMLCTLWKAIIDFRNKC

Experiment [2] concerns the target T2, TNF receptor–associated factor 2 (TRAF2) (mouse (endogenous in TAMs)) (UniProt P39429).
T2 sequence: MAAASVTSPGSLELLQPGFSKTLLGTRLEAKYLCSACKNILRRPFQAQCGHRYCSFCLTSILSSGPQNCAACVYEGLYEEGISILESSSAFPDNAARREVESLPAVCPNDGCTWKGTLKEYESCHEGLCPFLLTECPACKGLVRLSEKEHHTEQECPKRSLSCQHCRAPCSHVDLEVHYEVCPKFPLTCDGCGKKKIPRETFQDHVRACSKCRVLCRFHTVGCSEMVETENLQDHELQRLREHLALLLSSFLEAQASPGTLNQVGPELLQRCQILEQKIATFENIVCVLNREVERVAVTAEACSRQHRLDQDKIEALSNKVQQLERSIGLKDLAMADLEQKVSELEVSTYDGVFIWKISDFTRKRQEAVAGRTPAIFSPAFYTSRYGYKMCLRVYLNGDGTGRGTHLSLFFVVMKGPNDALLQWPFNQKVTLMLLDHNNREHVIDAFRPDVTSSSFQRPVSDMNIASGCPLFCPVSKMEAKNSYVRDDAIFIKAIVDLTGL
In words: co-IP; endogenous proteins; TAMs incubated with varying concentrations of rhVEGI‐251 for 4 h; lysates precipitated with protein G–conjugated anti‐TRAF2 antibody, blotted with anti‐ASK1 or anti‐TRAF2; lysis buffer 150 mmol/L NaCl, 25 mmol/L HEPES, 1% NP‐40.

No constants are given. Whether binding was seen depends on the method and setting. Binding seen in cells or lysates may run through a third protein. Some entries that bind do so weakly or less than the wild type. For part of these data: Tags and fused reporters may be left off the sequences shown.

Among the data in publication PMC7348178 are binding values, retold here.

Take “apoptosis signal‐regulating kinase 1 (ASK1) (from UniProt O35099 1-1380)”: the binding entry in experiment [1] and in experiment [2] was “binds” each time.

B1: TNF receptor–associated factor 2 (TRAF2) (protein, UniProt P39429 1-501)
chain: T2 sequence
For the molecule B1, the binding result in experiment [1] was “binds”.
